Experimental data taken from the supplement of paper PMC12823440, “Inhibitors supercharge kinase turnover through native proteolytic circuits” (Nature, 2025).
Where a name gives a salt, the structure may show the parent alone. Some of the results follow. Hit calls seldom repeat between salt and free forms of one compound.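 In K562 cells expressing nanoluciferase-fused kinases, luminescence was recorded at 4 h intervals between 2 and 18 h, normalized as percent of control with DMSO at 100% and a positive control at 0%. A significant (2 sigma) signal drop marks a time point as decreased. The authors' rule for a hit is not shown and takes in more than the number of time points.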

The chains behind the UniProt entries cited, without tags or fusion partners.
UniProt Q9Y463, whole entry, looked up: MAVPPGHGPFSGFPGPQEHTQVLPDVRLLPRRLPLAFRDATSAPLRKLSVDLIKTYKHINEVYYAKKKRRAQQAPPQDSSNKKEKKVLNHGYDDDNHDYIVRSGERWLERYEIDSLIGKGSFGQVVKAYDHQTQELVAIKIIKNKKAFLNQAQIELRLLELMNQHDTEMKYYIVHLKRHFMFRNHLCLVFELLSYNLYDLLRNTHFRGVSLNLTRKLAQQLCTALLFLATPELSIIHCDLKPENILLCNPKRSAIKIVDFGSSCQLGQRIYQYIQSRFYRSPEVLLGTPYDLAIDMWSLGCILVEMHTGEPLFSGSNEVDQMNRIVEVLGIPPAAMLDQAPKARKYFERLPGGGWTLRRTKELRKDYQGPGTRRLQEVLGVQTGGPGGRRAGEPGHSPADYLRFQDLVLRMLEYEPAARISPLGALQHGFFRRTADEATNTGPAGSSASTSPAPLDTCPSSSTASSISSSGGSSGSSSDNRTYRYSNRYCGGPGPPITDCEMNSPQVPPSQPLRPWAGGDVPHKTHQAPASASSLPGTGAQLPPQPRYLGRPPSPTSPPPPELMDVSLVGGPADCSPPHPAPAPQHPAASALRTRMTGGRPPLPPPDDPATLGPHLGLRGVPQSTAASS

Molecular target: DYRK1B (UniProt Q9Y463)
Assay: kinase-Nluc reporter destabilization hit call (1 = scored as downregulated) (binary); higher = compound decreases kinase abundance
Details: 2 µM; K562; 2-18 h

kinase-Nluc reporter destabilization hit call, inactive:
CCc1nc(C(N)=O)c(Nc2ccc(N3CCC(N4CCN(C)CC4)CC3)c(OC)c2)nc1NC1CCOCC1 [Gilteritinib] 0, CCc1nc(C(N)=O)c(Nc2ccc(N3CCC(N4CCN(C)CC4)CC3)c(OC)c2)nc1NC1CCOCC1 [Gilteritinib hemifumarate] 0, Cc1[nH]c(/C=C2\C(=O)Nc3ccc(F)cc32)c(C)c1C(=O)NCCN1CCCC1 [Toceranib (phosphate)] 0, Cc1[nH]c(/C=C2\C(=O)Nc3ccc(F)cc32)c(C)c1C(=O)NCCN1CCCC1 [Toceranib] 0

Same assay, conditions: 2.5 µM; K562; 2-18 h

kinase-Nluc reporter destabilization hit call, inactive:
C=CC(=O)Nc1cc(Nc2nccc(-c3cn(C)c4ccccc34)n2)c(OC)cc1N(C)CCN(C)C [Osimertinib mesylate] 0, c1cc(-c2cnn3cc(-c4ccc(OCCN5CCCCC5)cc4)cnc23)ccn1 [Dorsomorphin] 0, CN(C)C/C=C/C(=O)Nc1cc2c(Nc3ccc(F)c(Cl)c3)ncnc2cc1O[C@H]1CCOC1 [Afatinib (dimaleate)] 0, C=CC(=O)Nc1cc(Nc2nccc(-c3cn(C)c4ccccc34)n2)c(OC)cc1N(C)CCN(C)C [Osimertinib] 0, CN(C)C(=O)c1cc2cnc(Nc3ccc(N4CCNCC4)cn3)nc2n1C1CCCC1 [Ribociclib hydrochloride] 0, COc1ccc(S(=O)(=O)Nc2ccccc2CN(C)C/C=C/c2ccc(Cl)cc2)cc1 [KN-92 (hydrochloride)] 0, COc1ccc(S(=O)(=O)Nc2ccccc2CN(C)C/C=C/c2ccc(Cl)cc2)cc1 [KN-92 (phosphate)] 0
